# Results of single-concentration screens

By UniProt entry, the sequences of proteins in these tests, tags left out. Residues count along the entry.
UniProt Q8IDJ8, 1-583: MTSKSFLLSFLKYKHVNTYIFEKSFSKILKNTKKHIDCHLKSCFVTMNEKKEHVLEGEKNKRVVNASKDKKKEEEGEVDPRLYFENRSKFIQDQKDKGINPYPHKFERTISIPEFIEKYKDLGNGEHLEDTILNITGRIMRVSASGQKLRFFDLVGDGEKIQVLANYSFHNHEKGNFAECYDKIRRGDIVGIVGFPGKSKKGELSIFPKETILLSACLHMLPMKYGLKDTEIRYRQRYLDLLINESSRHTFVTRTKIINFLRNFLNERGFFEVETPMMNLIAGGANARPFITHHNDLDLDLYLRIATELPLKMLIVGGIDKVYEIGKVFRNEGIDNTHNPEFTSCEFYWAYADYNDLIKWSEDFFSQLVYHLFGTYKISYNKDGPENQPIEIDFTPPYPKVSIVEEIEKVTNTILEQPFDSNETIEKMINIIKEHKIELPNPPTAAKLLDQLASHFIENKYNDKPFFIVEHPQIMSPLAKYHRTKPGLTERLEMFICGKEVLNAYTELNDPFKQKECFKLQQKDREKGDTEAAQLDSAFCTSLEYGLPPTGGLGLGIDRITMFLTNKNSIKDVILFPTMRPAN
UniProt A4I591, 1-473: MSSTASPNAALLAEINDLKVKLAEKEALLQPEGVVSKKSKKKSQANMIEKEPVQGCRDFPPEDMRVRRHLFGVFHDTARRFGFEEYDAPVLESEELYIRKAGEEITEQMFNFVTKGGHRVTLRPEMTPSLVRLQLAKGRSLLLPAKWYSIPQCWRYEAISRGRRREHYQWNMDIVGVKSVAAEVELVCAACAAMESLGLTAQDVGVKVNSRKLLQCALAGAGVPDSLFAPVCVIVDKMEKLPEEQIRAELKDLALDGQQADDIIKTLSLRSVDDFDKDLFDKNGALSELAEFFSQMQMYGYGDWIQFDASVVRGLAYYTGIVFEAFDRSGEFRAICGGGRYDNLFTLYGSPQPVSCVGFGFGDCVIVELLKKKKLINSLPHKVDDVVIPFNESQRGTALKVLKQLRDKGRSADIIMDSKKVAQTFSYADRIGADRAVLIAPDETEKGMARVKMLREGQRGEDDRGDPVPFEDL

Measurements from “University of Dundee, Small-Polar-MMV Screening Library” (2021), ChEMBL document CHEMBL3988442.

Each number is a percent effect as filed.
The record does not define 0% and 100%; most values in the screen are far below 50% and negative numbers occur (in some assays of this library far below -100).
This is an unselected part of the compounds tested.
A dash means the value is not listed here; it may have been measured.

A: 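Whole-parasite assay of Trypanosoma brucei over 72 hours; the read-out is not stated. Compounds at 30 µM. The record gives no direction; compounds that gave an IC50 in retests scored well above the rest, so higher reads as stronger inhibition. Values scatter widely below zero; nearly all retest evidence comes from the higher of the two concentrations used. Size under these conditions: about 64,000 compounds, about 940 of them at 50% or above in at least one test.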
B: 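Lysine-tRNA ligase, Plasmodium falciparum 3D7 (UniProt Q8IDJ8). Enzyme assay of the cytosolic lysyl-tRNA synthetase in 384-well plates, read by luminescence. Tested at 30 µM. Higher reads as stronger inhibition, judged from the few compounds that gave an IC50. Size under these conditions: about 69,000 compounds, about 49 of them at 50% or above in at least one test.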
C: 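Histidine-tRNA ligase, Leishmania infantum (UniProt A4I591). Enzyme assay of histidyl-tRNA synthetase; the read-out is not stated. Compounds at 30 µM. Higher reads as stronger inhibition (inferred: compounds with an IC50 in retests scored well above the rest). The assay is labelled LdHisRS but filed under L. infantum. Of about 69,000 compounds tested this way, about 410 (0.6%) reached 50% or more in at least one test.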
D: 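Assay of Toxoplasma gondii numbers, read through their beta-galactosidase reporter with a colour substrate. Compounds at 10 µM. Higher reads as fewer parasites (inferred from which compounds were picked for retests). Of about 67,000 compounds tested this way, about 260 (0.38%) reached 50% or more in at least one test.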

structure	A	B	C	D
[H][C@@]12CC[C@H](Oc3cccc(F)c3)[C@]1([H])CN(C(=O)c1cnco1)C2	-0.4566	-	-	25.94
CCc1ccc(CNC2(c3ccc(F)cc3)CCOCC2)o1	-12.25	0.04583	-36.36	-0.7506
O=S(=O)(CCCN1CCCC1Cn1cccn1)c1ccccc1 (configuration not stated)	3.686	7.528	15.62	-3.337
CC(C)n1nc(CN(C)C)c2c1CN(C(=O)CC1CC1)CC2	-	14.8	20.69	-
O=C(C1CCCCC1)N1C[C@@H]2CCN(c3cnccn3)C[C@@H]2C1	-	6.018	46.79	-
CC(NS(=O)(=O)CC1(C#N)CCCC1)c1cccc(-n2cccn2)c1 (configuration not stated)	-55.25	0.07264	12.61	4.356
CCCn1ccc2cc(NC(=O)NCCn3cnnc3CC)ccc21	3.929	4.006	19.3	9.124
Cc1noc(C)c1C(=O)N[C@@H]1CC[C@@H](Oc2ccccc2)[C@@H]1O	-4.467	-0.3981	4.196	-1.11
CCc1[nH]ncc1C(=O)N1CCCC(n2ccnc2C(C)C)C1 (configuration not stated)	-3.895	10.68	17.57	4.972
Cc1noc(C2CCN(C(=O)C3CCCO3)CC2)n1 (configuration not stated)	-7.925	7.691	17.2	19.33
CC1CN(c2ncnc3ccccc23)CCO1 (configuration not stated)	-4.582	0.3543	11.69	-4.843
CCc1nc(NS(=O)(=O)c2cc(C)c(F)cc2Cl)no1	54.01	0.5132	-3.306	-2.489
[H][C@]12CCN(Cc3cc(Cn4cncn4)c(C)cc3C)C[C@]([H])(CC1)N2	-18.32	-	-	-17.74
Nc1ccnc(N2CCC(CCc3ccccc3)(C(=O)O)CC2)n1	-18.88	-8.33	28.57	0.7609
CCNC(=O)C1CCN(c2nc(-c3ccco3)nc3c2CCNCC3)C1 (configuration not stated)	-9.722	1.212	8.219	4.273
O=C(Cc1csc(-c2ccccc2Cl)n1)NCc1cccc(C(=O)O)c1	-5.229	1.653	23.91	-
COC(=O)N1CCCC(NC(=O)NCc2ccc(C)nc2)C1 (configuration not stated)	3.453	9.164	13.22	-8.824
CC1CCCCN1c1nc2c(c(=O)[nH]1)CCN(Cc1ccccc1O)C2 (configuration not stated)	-1.718	1.63	10.14	-3.706
Cc1cnc(CC2COCCN(C(=O)c3cncs3)C2)cn1 (configuration not stated)	6.013	0.4556	8.633	8.015
CSc1ccc(-c2nc(CN3CCCC(CNC(C)=O)C3)c(C)o2)cc1 (configuration not stated)	20.54	0.9096	15.09	0.7856
Cc1cc(C)cc(NC(=O)Nc2c(O)oc3ccccc3c2=O)c1	-8.687	6.088	16.05	-18.4
CCCc1cc(C(=O)N[C@@H]2CC[C@@H](N3CCOCC3)[C@@H]2O)no1	-5.113	2.718	12.77	-49.51
Cc1cc(N2CCC(NC(=O)CCC3CCCO3)CC2)nc(C)n1 (configuration not stated)	-16.17	2.34	-2.222	0.5823
c1cnc(NCc2n[nH]c3c2CCN(Cc2ccncc2)C3)nc1	-58.49	2.069	5.128	-0.3723
Cc1cnc(C(NC(=O)NCc2nc(C3CC3)no2)C2CC2)s1 (configuration not stated)	-1.126	2.259	5.181	2.41
CNCC(=O)N1CCCC1c1cncc(Oc2ccc(F)cc2)n1.Cl (configuration not stated)	-5.938	-	-	-18.08
Cc1nc(CN2C(=O)CC[C@H]3[C@@H]2CCN3C(=O)c2ccsc2)cs1	-	4.552	16.54	-
Cc1cnn(CC2CN(CC(=O)N(C)Cc3ccccc3)CCO2)c1 (configuration not stated)	-14.81	0.8115	10.34	-4.637
CCc1c(NCc2cccnc2)cnn1CC(C)C	-22.36	-1.625	1.37	-1.896
Cc1cnn(CCNCc2ccccc2OCc2ccccn2)c1	-12.48	0.962	4.348	3.765
OCCN1CCN(CCOCC(F)(F)F)CC1	-10.01	-4.135	14.29	5.833
CC(CS(C)(=O)=O)NC(=O)N1CC2(CCCC2)c2ccccc21 (configuration not stated)	15.02	-1.937	6.25	-4.345
Cn1cc(CN2CCCC3(COCCN(Cc4c[nH]nn4)C3)C2)cn1.O=C(O)C(F)(F)F.O=C(O)C(F)(F)F (configuration not stated)	-11.44	-	-	-4.338
CC(C)c1nc(C2CCCN2c2cnc3cc(F)c(F)cc3n2)no1 (configuration not stated)	85.34	4.46	8.219	4.532
O=C(c1nc(=O)[nH]c2ccccc12)N1CCCC2(CCNC2)C1 (configuration not stated)	-3.646	-0.1434	20.16	-6.066
CCC(C)N(Cc1cccnc1)C(=O)c1ccc(F)c(O)c1 (configuration not stated)	-6.136	0.2659	5.495	7.149
CC(C)n1cnnc1CNC(=O)c1cnn(-c2ccccc2)c1	-12.64	7.182	17.71	1.53
CN(Cc1nnc2ccccn12)C(=O)CCC1CCCC1	-76.8	-3.89	9.859	0.5394
Cc1cnc2n(c1=O)C(CC(=O)NCc1cc(-c3cccs3)on1)CS2 (configuration not stated)	9.315	-6.372	12.62	-4.324
Cc1nc2[nH]cnc(Nc3ccn(C)n3)c-2n1	3.016	1.511	20	-29.71
Cc1ccc(C)c(C(=O)N2CCC3(CCC(=O)N(CC(N)=O)C3)CC2)c1	-62.76	-1.292	-1.235	39.82
Cc1nn(-c2ccccc2)c(C)c1-c1ccnc(N2CCC(O)CC2)n1	14.22	2.998	2.151	-3.285
CCn1ncc(CN2CCCC(n3c(=O)oc4ccccc43)C2)c1C.Cl (configuration not stated)	17.06	-	-	12.55
COC(=O)CNC(=O)c1cc(-c2ccccc2)nc2ncnn12	-	2.512	10.62	-0.4394
COCCN1C2(CCN(C(=O)c3cccs3)C2)c2ccccc2S1(=O)=O (configuration not stated)	-8.958	0.5851	22.34	-27.18
Cc1nc(C(C)(C)NCc2ncc(C(C)C)o2)sc1C	-2.445	-2.136	10	1.354
Cc1nn(C)c(C)c1NC(=O)CNC(c1ccc(F)cc1)C1CCC1 (configuration not stated)	-142.1	6.02	13.7	-7.513
[H][C@]12CN(C(=O)c3cnccc3C)C[C@@]1(C(=O)O)CN(c1ncccn1)C2	-68.9	-	-	18.33
Cc1cnn(CCNCC(O)COc2c(C)ccc(C)c2C)c1 (configuration not stated)	18.74	14.52	10.11	-
CN(Cc1ccccc1)C(=O)CN1CCOC(Cn2cncn2)C1 (configuration not stated)	-	0.5393	10.17	-20.86
N#CCc1ccc(OCC(=O)NS(=O)(=O)c2ccc(Cl)s2)cc1	-5.429	5.477	14.29	4.307
CCS(=O)(=O)N1CCc2c(cccc2NCc2nc(C)c(C)o2)C1	21.68	-4.716	0	0.6807
CCS(=O)(=O)N1CCO[C@H]2[C@H](Oc3ncccc3F)CC[C@@H]21	-	1.343	8.219	-
CC(C)N(Cc1ccc(C#N)cc1)Cc1nnsc1Cl	-19.62	1.044	15.83	-50.34
CC(Cn1cncn1)NCc1csc2c1CCCC2 (configuration not stated)	-33.36	2.23	13.7	11.28
Cc1cc(S(=O)(=O)N2CCCc3ccccc32)sc1C(=O)O	-34.62	5.672	-2.679	15.47
CCNC(c1ccc(C(C)C)cc1)c1cccnc1 (configuration not stated)	18.49	0.01378	14.04	-35.88
Cc1ccc(S(=O)(=O)c2ncccc2CN2CCOCC2)cc1	-31.33	2.376	5.263	-13.19
Cc1cccc2c1cnn2CCCNC(=O)C1CC1	-16.1	3.788	10.34	-1.953
CCN1CCC12CCN(C(=O)c1ccsc1)C2 (configuration not stated)	-	-1.554	15.38	-
O=C(NCC1CC1)[C@@H]1CC[C@@H]2[C@@H](CCN2Cc2ccc(F)c(F)c2)O1	-	1.829	15.28	-
CC(C)NC(=O)CC(C)NCc1cc(Cl)ccc1F (configuration not stated)	5.976	3.738	7.692	3.861
Cc1ccc(C2(CN(C)Cc3c(C)nn(C)c3C)CCNCC2)nc1	34.43	7.665	23.89	6.268
CN1CCN(c2ccc(NC(=O)c3ccccn3)c(C(F)(F)F)c2)CC1	-62.78	-0.6658	9.859	11.18
Cl.[H][C@@]12CCN(C3CCCCC3)C[C@]1([H])[C@@H](c1ccsc1)CN2C(=O)C(C)(C)C	-	-	-	3.682
CC(C)C(=O)Nc1ccc(C(O)Cn2nc(-c3cccs3)oc2=O)cc1 (configuration not stated)	-13.96	2.608	4.464	6.395

Some entries from above, unchanged:

c1cnc(NCc2n[nH]c3c2CCN(Cc2ccncc2)C3)nc1 gave A: -58.49%; B: 2.069%; C: 5.128%; D: -0.3723%.
CCc1c(NCc2cccnc2)cnn1CC(C)C gave A: -22.36%; B: -1.625%; C: 1.37%; D: -1.896%.
Cc1cnc2n(c1=O)C(CC(=O)NCc1cc(-c3cccs3)on1)CS2 (configuration not stated) gave A: 9.315%; B: -6.372%; C: 12.62%; D: -4.324%.